In the supplement of paper PMC10849652:
Some of the results follow.

Chains of the proteins cited; added tags and fusions are not shown. Lines headed by an entry give the natural chain unless they say otherwise; changes in a name come on top.
UniProt P49069: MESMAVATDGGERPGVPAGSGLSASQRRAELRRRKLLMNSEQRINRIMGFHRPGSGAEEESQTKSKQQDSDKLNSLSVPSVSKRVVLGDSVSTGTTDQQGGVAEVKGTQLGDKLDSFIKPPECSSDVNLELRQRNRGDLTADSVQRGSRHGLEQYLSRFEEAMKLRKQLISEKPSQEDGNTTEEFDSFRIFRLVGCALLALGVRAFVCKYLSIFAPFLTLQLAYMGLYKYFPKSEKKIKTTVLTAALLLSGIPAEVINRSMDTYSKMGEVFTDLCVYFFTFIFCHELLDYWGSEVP
UniProt A6NDU8: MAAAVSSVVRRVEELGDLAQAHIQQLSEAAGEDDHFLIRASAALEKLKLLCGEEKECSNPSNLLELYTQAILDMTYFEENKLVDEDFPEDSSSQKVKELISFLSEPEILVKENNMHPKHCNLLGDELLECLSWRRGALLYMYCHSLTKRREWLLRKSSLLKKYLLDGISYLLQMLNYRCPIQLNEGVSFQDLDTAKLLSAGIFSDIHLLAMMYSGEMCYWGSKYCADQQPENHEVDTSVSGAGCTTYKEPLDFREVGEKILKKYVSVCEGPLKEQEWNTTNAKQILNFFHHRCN
UniProt P40121: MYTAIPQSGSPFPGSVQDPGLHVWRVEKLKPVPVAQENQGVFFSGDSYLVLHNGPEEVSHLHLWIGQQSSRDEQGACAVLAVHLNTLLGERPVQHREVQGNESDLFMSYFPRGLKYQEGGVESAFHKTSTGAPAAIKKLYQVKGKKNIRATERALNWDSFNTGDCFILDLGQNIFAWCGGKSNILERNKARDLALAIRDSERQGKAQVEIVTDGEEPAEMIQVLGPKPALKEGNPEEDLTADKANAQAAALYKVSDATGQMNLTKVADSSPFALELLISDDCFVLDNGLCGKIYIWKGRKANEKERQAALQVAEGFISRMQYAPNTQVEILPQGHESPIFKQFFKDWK
UniProt Q9Y2V2: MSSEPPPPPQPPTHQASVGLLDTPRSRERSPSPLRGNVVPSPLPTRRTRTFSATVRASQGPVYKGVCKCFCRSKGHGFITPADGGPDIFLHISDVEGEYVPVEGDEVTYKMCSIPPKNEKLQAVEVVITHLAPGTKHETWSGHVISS
UniProt Q6P1S2: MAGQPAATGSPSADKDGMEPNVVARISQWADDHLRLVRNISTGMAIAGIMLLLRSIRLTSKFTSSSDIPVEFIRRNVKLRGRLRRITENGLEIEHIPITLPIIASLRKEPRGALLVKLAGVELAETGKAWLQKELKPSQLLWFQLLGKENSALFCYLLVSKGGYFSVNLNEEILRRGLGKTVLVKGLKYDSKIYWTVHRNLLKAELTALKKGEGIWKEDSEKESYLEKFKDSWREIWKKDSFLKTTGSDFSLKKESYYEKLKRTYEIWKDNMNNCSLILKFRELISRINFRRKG
UniProt O43683: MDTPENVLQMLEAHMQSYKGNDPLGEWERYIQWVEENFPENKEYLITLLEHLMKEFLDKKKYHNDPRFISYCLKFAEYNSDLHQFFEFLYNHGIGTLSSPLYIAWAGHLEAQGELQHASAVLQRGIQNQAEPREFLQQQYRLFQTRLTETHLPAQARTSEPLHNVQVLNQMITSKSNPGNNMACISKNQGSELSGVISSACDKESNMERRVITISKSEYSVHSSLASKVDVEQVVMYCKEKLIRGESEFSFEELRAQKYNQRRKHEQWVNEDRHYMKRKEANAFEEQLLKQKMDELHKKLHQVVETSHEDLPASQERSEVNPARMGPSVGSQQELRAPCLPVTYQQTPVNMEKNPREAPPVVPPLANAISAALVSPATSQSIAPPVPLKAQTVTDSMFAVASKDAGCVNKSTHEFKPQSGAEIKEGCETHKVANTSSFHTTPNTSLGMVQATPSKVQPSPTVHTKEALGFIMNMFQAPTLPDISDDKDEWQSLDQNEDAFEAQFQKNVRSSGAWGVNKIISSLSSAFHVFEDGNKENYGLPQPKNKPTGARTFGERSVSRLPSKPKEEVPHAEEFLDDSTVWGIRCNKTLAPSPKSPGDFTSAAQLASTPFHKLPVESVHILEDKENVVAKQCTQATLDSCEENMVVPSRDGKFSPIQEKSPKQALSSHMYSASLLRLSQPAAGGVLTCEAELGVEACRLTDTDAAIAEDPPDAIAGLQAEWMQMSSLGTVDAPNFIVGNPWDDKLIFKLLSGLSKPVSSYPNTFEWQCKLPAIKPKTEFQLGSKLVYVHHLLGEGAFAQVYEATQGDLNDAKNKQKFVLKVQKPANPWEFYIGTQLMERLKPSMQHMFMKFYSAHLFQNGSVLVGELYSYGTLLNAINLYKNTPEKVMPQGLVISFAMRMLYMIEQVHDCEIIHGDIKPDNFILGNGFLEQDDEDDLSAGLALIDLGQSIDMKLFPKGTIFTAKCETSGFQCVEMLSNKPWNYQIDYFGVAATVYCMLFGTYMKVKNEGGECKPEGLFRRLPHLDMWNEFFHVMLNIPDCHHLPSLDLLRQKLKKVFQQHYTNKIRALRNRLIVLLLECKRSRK
UniProt O95873: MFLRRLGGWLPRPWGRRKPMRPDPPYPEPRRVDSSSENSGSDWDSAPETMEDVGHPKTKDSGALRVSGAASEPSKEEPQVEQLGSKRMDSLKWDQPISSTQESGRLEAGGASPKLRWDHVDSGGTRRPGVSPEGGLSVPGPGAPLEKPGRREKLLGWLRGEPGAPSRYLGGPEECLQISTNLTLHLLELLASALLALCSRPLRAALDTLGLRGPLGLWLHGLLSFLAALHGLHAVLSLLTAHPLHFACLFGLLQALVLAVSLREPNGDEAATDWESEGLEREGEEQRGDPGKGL
UniProt P04632: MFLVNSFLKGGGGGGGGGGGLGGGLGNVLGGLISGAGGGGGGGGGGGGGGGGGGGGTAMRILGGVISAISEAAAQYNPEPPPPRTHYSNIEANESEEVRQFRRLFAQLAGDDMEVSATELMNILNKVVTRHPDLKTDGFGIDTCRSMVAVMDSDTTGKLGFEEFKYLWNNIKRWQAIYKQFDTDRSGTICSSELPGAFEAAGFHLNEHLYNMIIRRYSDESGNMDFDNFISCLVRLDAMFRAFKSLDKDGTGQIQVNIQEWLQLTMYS
UniProt Q9BVC5: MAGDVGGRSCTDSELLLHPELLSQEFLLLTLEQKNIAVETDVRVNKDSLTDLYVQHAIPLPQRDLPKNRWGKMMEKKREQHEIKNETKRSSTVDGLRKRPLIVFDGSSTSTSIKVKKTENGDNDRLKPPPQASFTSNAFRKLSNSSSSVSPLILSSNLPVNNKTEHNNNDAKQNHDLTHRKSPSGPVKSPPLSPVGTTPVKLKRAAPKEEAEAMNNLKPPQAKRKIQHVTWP
UniProt Q8WUR7: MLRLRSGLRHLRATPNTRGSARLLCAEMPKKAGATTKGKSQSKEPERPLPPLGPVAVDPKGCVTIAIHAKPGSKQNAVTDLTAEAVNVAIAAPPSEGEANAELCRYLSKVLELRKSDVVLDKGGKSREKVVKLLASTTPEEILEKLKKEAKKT
UniProt Q9UFG5: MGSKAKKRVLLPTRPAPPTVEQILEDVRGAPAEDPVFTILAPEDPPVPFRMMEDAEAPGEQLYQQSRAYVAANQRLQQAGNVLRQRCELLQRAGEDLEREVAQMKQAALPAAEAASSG
UniProt Q86VP6: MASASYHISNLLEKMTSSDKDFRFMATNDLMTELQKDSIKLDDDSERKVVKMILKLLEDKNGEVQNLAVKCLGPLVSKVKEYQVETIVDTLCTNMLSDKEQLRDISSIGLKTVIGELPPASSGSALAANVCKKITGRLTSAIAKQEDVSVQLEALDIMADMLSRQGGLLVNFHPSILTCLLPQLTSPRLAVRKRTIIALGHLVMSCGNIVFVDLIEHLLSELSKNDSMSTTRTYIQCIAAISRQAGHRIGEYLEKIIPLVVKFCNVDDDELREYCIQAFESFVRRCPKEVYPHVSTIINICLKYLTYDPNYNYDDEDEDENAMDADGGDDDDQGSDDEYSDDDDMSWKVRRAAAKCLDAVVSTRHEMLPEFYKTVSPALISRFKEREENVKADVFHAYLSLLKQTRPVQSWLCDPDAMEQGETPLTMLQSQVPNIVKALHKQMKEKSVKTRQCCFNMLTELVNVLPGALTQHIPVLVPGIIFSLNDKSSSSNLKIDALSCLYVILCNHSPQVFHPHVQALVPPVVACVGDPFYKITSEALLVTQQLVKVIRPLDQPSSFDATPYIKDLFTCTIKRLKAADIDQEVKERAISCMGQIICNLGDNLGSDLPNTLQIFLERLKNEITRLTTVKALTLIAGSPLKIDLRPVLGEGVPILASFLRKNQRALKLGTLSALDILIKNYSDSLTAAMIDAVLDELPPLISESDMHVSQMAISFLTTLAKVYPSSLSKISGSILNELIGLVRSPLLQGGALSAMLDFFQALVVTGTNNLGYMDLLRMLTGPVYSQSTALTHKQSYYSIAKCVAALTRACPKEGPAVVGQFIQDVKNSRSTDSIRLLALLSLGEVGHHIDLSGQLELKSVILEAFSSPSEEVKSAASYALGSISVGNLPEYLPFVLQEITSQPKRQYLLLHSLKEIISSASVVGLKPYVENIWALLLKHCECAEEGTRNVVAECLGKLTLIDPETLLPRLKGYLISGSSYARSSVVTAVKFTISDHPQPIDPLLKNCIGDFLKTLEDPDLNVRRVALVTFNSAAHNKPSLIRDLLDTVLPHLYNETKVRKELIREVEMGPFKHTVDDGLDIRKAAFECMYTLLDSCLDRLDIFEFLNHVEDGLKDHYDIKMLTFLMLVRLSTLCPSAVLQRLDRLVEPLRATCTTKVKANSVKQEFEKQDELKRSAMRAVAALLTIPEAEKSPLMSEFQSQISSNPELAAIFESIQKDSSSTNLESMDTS
UniProt O43852: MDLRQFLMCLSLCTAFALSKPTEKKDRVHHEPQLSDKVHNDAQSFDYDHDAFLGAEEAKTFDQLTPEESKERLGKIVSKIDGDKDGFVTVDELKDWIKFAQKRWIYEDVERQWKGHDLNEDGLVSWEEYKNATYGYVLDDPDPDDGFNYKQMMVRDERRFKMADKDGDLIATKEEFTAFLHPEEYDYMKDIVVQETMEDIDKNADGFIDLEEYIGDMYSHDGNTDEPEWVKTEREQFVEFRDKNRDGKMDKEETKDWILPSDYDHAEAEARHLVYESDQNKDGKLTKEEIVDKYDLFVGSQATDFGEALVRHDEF
UniProt Q9H0W9: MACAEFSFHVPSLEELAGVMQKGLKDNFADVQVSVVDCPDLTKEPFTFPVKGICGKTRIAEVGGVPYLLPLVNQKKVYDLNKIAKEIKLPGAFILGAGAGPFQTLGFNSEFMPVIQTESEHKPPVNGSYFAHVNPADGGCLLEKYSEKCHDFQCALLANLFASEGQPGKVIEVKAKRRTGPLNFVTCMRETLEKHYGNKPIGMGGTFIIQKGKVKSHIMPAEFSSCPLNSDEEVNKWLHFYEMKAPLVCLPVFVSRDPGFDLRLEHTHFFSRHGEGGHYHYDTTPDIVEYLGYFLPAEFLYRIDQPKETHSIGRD
UniProt Q96B23: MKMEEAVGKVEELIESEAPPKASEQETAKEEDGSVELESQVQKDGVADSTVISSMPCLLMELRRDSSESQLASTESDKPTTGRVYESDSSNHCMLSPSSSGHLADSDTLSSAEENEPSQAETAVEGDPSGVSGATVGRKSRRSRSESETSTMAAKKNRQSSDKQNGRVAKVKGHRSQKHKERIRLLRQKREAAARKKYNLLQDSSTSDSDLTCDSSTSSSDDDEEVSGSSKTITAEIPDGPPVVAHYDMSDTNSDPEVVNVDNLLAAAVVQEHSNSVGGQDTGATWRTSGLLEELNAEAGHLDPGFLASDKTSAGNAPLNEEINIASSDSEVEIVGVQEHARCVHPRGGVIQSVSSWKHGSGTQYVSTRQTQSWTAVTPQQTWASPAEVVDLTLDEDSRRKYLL

Key:
Assay in all cases: log2 fold change, soluble protein after heating vs DMSO (PISA); higher = thermal stabilisation; K562 cells, 10 uM, 30 min; active = over 0.2 and 3.5 SD of the protein, either way, in both replicates (recomputed)
saracatinib = compound: CN1CCN(CCOc2cc(OC3CCOCC3)c3c(Nc4c(Cl)ccc5c4OCO5)ncnc3c2)CC1 [saracatinib]
In short: (§1)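 K562 cells at 2×10^6 cells/mL were treated with 10 μM compound for 30 min. Aliquots were heated for 3 min across 48°C-58°C, pooled, and extracted in PBS with 0.5% NP-40 at 4°C; soluble protein was the supernatant after 21,000xg for 90 min. Soluble protein was quantified by TMTpro 16plex LC-MS/MS with channel sums equalised, and reported as log2 fold change in thermal stability against DMSO controls, with values from duplicates.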

sotrastaurin = compound: CN1CCN(c2nc(C3=C(c4c[nH]c5ccccc45)C(=O)NC3=O)c3ccccc3n2)CC1 [sotrastaurin]
In short: as §1

alvocidib = compound: CN1CC[C@H](c2c(O)cc(O)c3c(=O)cc(-c4ccccc4Cl)oc23)[C@H](O)C1 [alvocidib]
In short: as §1

Tubastatin A = compound: CN1CCc2c(c3ccccc3n2Cc2ccc(C(=O)NO)cc2)C1 [Tubastatin A]
In short: as §1

[1] = compound: CNC(=O)C1=CC=CC=C1NC2=NC(=NC=C2Cl)NC3=C(C=C(C=C3)N4CCOCC4)OC
In short: as §1

defactinib = compound: CNC(=O)c1ccc(Nc2ncc(C(F)(F)F)c(NCc3nccnc3N(C)S(C)(=O)=O)n2)cc1 [defactinib]
In short: as §1

rucaparib = compound: CNCc1ccc(-c2[nH]c3cc(F)cc4c3c2CCNC4=O)cc1 [rucaparib]
In short: as §1

[2] = compound: CNc1nc(-c2ccc3c(N)n[nH]c3c2)cc(N2C[C@@H](C(=O)NC3CCCCC3)CC[C@H]2C)n1
In short: as §1

encorafenib = compound: COC(=O)N[C@@H](C)CNc1nccc(-c2cn(C(C)C)nc2-c2cc(Cl)cc(NS(C)(=O)=O)c2F)n1 [encorafenib]
In short: as §1

[3] = compound: COC(=O)[C@H](CCSC)NC(=O)C1=C(C=C(C=C1)NC[C@H](CS)N)C2=CC=CC=C2
In short: as §1

[4] = compound: COC1=CC=C(C=C1)CN2C=CC3=C2C=C(C=C3)C(=O)NO
In short: as §1

filanesib = compound: CON(C)C(=O)N1N=C(c2cc(F)ccc2F)S[C@@]1(CCCN)c1ccccc1 [filanesib]
In short: as §1

zotarolimus = compound: CO[C@H]1C[C@@H]2CC[C@@H](C)[C@@](O)(O2)C(=O)C(=O)N2CCCC[C@H]2C(=O)O[C@H]([C@H](C)C[C@@H]2CC[C@H](n3cnnn3)[C@H](OC)C2)CC(=O)[C@H](C)/C=C(\C)[C@@H](O)[C@@H](OC)C(=O)[C@H](C)C[C@H](C)/C=C/C=C/C=C/1C [zotarolimus]
In short: as §1

idasanutlin = compound: COc1cc(C(=O)O)ccc1NC(=O)[C@@H]1N[C@@H](CC(C)(C)C)[C@](C#N)(c2ccc(Cl)cc2F)[C@H]1c1cccc(Cl)c1F [idasanutlin]
In short: as §1

alisertib = compound: COc1cc(Nc2ncc3c(n2)-c2ccc(Cl)cc2C(c2c(F)cccc2OC)=NC3)ccc1C(=O)O [alisertib]
In short: as §1

[5] = compound: COc1cc2nc(-c3cc(F)ccc3O)nc(N[C@@H]3CNC[C@H]3C(C)(C)O)c2cc1OC
In short: as §1

gefitinib = compound: COc1cc2ncnc(Nc3ccc(F)c(Cl)c3)c2cc1OCCCN1CCOCC1 [gefitinib]
In short: as §1

[6] = compound: COc1cccc2cc(-c3nc([C@H]4CC[C@H](C(=O)O)CC4)n4ncnc(N)c34)[nH]c12
In short: as §1

lapatinib = compound: CS(=O)(=O)CCNCc1ccc(-c2ccc3ncnc(Nc4ccc(OCc5cccc(F)c5)c(Cl)c4)c3c2)o1 [lapatinib]
In short: as §1

pictilisib = compound: CS(=O)(=O)N1CCN(Cc2cc3nc(-c4cccc5[nH]ncc45)nc(N4CCOCC4)c3s2)CC1 [pictilisib]
In short: as §1

Measured: log2 fold change

CAMLG (UniProt P49069)
inactive: saracatinib 0.017 | sotrastaurin -0.006 | alvocidib -0.015 | Tubastatin A -0.003 | [1] -0.062 | defactinib 0 | rucaparib 0.029 | [2] -0.029 | encorafenib 0.113 | [3] 0.018 | [4] -0.008 | filanesib 0.038 | zotarolimus -0.006 | idasanutlin -0.029 | alisertib -0.088 | [5] -0.052 | gefitinib 0.021 | [6] 0.073 | lapatinib -0.036 | pictilisib 0.077

C5orf51 (UniProt A6NDU8)
inactive: saracatinib -0.189 | sotrastaurin -0.087 | alvocidib -0.09 | Tubastatin A 0.031 | [1] 0.019 | defactinib -0.072 | rucaparib -0.057 | [2] 0.096 | encorafenib 0.009 | [3] -0.065 | [4] -0.042 | filanesib -0.051 | zotarolimus 0.092 | idasanutlin -0.13 | alisertib -0.072 | [5] 0.053 | gefitinib 0.005 | [6] -0.02 | lapatinib -0.036 | pictilisib 0.014

CAPG (UniProt P40121)
inactive: saracatinib 0.033 | sotrastaurin -0.058 | alvocidib -0.034 | Tubastatin A -0.003 | [1] 0.033 | defactinib -0.09 | rucaparib -0.045 | [2] -0.02 | encorafenib -0.01 | [3] -0.003 | [4] 0.101 | filanesib -0.045 | zotarolimus 0.018 | idasanutlin -0.095 | alisertib 0.053 | [5] 0.008 | gefitinib 0.013 | [6] -0.017 | lapatinib 0.025 | pictilisib 0.036

CARHSP1 (UniProt Q9Y2V2)
inactive: saracatinib 0.019 | sotrastaurin -0.046 | alvocidib -0.003 | Tubastatin A -0.003 | [1] 0.006 | defactinib 0.022 | rucaparib -0.018 | [2] 0.004 | encorafenib -0.035 | [3] 0.022 | [4] -0.023 | filanesib -0.005 | zotarolimus -0.038 | idasanutlin -0.015 | alisertib 0.014 | [5] -0.089 | gefitinib 0.072 | [6] -0.051 | lapatinib 0.004 | pictilisib 0.089

C3orf33 (UniProt Q6P1S2)
inactive: saracatinib 0.006 | sotrastaurin 0.051 | alvocidib -0.004 | Tubastatin A 0.022 | [1] 0.001 | defactinib 0.005 | rucaparib -0.047 | [2] 0.004 | encorafenib 0.092 | [3] -0.064 | [4] -0.008 | filanesib 0.027 | zotarolimus -0.003 | idasanutlin -0.046 | alisertib -0.029 | [5] 0.084 | gefitinib 0.143 | [6] 0 | lapatinib 0.052 | pictilisib 0.046

BUB1 (UniProt O43683)
inactive: saracatinib -0.076 | sotrastaurin 0.067 | alvocidib 0.075 | Tubastatin A -0.009 | [1] -0.094 | defactinib 0.01 | rucaparib -0.287 | [2] -0.034 | encorafenib -0.078 | [3] 0.038 | [4] -0.174 | filanesib 0.013 | zotarolimus -0.123 | idasanutlin -0.09 | alisertib -0.023 | [5] 0.167 | gefitinib 0.044 | [6] 0.056 | lapatinib -0.182 | pictilisib 0.185

CAPZA1 (UniProt P52907)
inactive: saracatinib 0.027 | sotrastaurin 0.013 | alvocidib -0.017 | Tubastatin A 0 | [1] -0.013 | defactinib -0.025 | rucaparib -0.028 | [2] -0.013 | encorafenib -0.004 | [3] -0.006 | [4] 0.039 | filanesib 0.006 | zotarolimus 0.036 | idasanutlin -0.04 | alisertib -0.063 | [5] 0.02 | gefitinib -0.022 | [6] 0.029 | lapatinib -0.017 | pictilisib 0.027

C6orf47 (UniProt O95873)
inactive: saracatinib 0.039 | sotrastaurin 0.06 | alvocidib 0.024 | Tubastatin A -0.001 | [1] 0.023 | defactinib 0.074 | rucaparib 0.038 | [2] 0.011 | encorafenib -0.054 | [3] -0.002 | [4] -0.04 | filanesib -0.044 | zotarolimus -0.034 | idasanutlin -0.017 | alisertib 0.008 | [5] -0.018 | gefitinib -0.058 | [6] 0.097 | lapatinib 0.002 | pictilisib 0.017

CAPNS1 (UniProt P04632)
inactive: saracatinib 0.046 | sotrastaurin 0.057 | alvocidib -0.031 | Tubastatin A -0.022 | [1] 0.014 | defactinib 0.02 | rucaparib -0.06 | [2] 0.003 | encorafenib -0.008 | [3] 0.035 | [4] -0.063 | filanesib -0.017 | zotarolimus -0.026 | idasanutlin -0.039 | alisertib 0.017 | [5] -0.002 | gefitinib 0.023 | [6] 0.054 | lapatinib 0.012 | pictilisib 0.084

C2orf49 (UniProt Q9BVC5)
inactive: saracatinib -0.172 | sotrastaurin -0.265 | alvocidib 0.04 | Tubastatin A 0.141 | [1] 0.103 | defactinib 0.114 | rucaparib 0.13 | [2] 0.159 | encorafenib 0.089 | [3] -0.077 | [4] -0.012 | filanesib 0.36 | zotarolimus 0.254 | idasanutlin 0.085 | alisertib -0.089 | [5] 0.169 | gefitinib -0.029 | [6] -0.13 | lapatinib -0.044 | pictilisib -0.067

C15orf40 (UniProt Q8WUR7)
inactive: saracatinib -0.018 | sotrastaurin 0.074 | alvocidib 0.036 | Tubastatin A -0.034 | [1] 0.042 | defactinib 0.036 | rucaparib 0.003 | [2] -0.081 | encorafenib -0.081 | [3] 0.062 | [4] -0.056 | filanesib 0.014 | zotarolimus -0.022 | idasanutlin 0.01 | alisertib -0.009 | [5] 0.058 | gefitinib -0.029 | [6] 0.077 | lapatinib -0.051 | pictilisib -0.124

C19orf25 (UniProt Q9UFG5)
inactive: saracatinib -0.048 | sotrastaurin 0.023 | alvocidib 0.022 | Tubastatin A 0.286 | [1] -0.032 | defactinib -0.225 | rucaparib 0.083 | [2] 0.024 | encorafenib -0.029 | [3] -0.27 | [4] 0.196 | filanesib 0.052 | zotarolimus 0.138 | idasanutlin -0.042 | alisertib -0.043 | [5] -0.071 | gefitinib -0.015 | [6] 0.081 | lapatinib -0.08 | pictilisib 0.095

CAND1 (UniProt Q86VP6)
inactive: saracatinib 0.027 | sotrastaurin 0.007 | alvocidib 0 | Tubastatin A -0.042 | [1] -0.034 | defactinib -0.01 | rucaparib -0.038 | [2] -0.055 | encorafenib 0.002 | [3] 0.016 | [4] 0.112 | filanesib -0.073 | zotarolimus -0.001 | idasanutlin -0.044 | alisertib -0.069 | [5] -0.046 | gefitinib -0.007 | [6] 0.006 | lapatinib 0.013 | pictilisib 0.027

CALU isoform 4 (UniProt O43852)
inactive: saracatinib 0.003 | sotrastaurin 0.049 | alvocidib 0.026 | Tubastatin A -0.037 | [1] 0.005 | defactinib 0.019 | rucaparib -0.009 | [2] -0.054 | encorafenib -0.033 | [3] 0.054 | [4] -0.005 | filanesib -0.051 | zotarolimus -0.074 | idasanutlin -0.027 | alisertib 0.01 | [5] 0.04 | gefitinib 0.028 | [6] 0.04 | lapatinib -0.052 | pictilisib 0.03

C11orf54 (UniProt Q9H0W9)
inactive: saracatinib 0.039 | sotrastaurin 0.03 | alvocidib -0.081 | Tubastatin A 0.053 | [1] -0.009 | defactinib 0.047 | rucaparib -0.031 | [2] 0.036 | encorafenib 0.006 | [3] -0.006 | [4] 0.152 | filanesib -0.012 | zotarolimus 0.047 | idasanutlin -0.037 | alisertib -0.023 | [5] -0.03 | gefitinib -0.018 | [6] 0.023 | lapatinib -0.02 | pictilisib -0.004

C18orf25 isoform 2 (UniProt Q96B23)
inactive: saracatinib 0.133 | sotrastaurin -0.047 | alvocidib -0.037 | Tubastatin A -0.01 | [1] -0.091 | defactinib -0.03 | rucaparib -0.092 | [2] -0.087 | encorafenib 0.02 | [3] 0.016 | [4] 0.088 | filanesib 0.015 | zotarolimus 0.03 | idasanutlin 0.121 | alisertib -0.481 | [5] 0.015 | gefitinib -0.082 | [6] 0.064 | lapatinib 0.044 | pictilisib -0.12
